Data from paper PMC4606454.
Results are given in words; binding and its absence hold for the method and conditions named. Binding calls can cover weak binding; strength is not graded here. Tags and fused reporters may be left off the sequences shown. For part of these data: In cells and extracts the contact can be indirect.

Tests used:
[1] = molecular target: T1, His-MBP-KYP (Arabidopsis) (UniProt Q8GZB6); assay: pull-down; 2.5 μg His-GST-tagged prey with 2.5 μg His-MBP-tagged bait, amylose resin, room temperature, 50 mM Tris-HCl pH 7.5, 150 mM NaCl, 0.6% Triton X-100; prey detected with anti-GST; both purified
T1 sequence: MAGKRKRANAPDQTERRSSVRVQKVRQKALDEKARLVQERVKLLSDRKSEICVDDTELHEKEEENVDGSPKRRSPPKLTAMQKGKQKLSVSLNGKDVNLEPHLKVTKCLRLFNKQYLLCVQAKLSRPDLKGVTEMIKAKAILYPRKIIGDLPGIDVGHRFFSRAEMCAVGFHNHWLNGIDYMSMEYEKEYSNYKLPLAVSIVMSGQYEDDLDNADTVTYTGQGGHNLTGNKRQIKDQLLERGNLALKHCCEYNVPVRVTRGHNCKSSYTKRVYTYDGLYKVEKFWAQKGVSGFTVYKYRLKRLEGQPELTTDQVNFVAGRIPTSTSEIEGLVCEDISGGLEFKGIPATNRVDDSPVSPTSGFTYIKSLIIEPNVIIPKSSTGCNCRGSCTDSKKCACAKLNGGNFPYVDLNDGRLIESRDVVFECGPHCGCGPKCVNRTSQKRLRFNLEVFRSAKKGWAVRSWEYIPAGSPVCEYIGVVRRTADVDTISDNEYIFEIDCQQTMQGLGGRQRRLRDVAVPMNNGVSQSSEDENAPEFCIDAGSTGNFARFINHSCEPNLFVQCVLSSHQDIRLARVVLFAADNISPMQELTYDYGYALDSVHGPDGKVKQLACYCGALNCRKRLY

[2] = molecular target: T2, MBP-KYP SET domain (truncated KYP) (Arabidopsis) (UniProt Q8GZB6); assay: as above
T2 sequence: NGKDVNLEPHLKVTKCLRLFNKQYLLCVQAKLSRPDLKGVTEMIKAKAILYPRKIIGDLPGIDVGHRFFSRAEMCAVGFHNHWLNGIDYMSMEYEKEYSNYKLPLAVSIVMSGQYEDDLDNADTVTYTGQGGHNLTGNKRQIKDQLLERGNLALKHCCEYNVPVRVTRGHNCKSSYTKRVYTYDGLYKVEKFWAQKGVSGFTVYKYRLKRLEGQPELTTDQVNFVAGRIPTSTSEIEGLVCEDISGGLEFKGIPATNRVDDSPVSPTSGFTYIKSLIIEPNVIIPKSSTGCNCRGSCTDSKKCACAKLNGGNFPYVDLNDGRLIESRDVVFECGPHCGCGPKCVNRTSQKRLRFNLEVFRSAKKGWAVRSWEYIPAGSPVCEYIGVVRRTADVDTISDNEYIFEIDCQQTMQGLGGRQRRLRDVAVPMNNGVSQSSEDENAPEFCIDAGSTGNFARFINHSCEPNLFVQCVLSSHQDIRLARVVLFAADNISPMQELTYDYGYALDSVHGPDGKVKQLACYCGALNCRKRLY

[3] = molecular target: T3, CLuc-HA3-KYP (Arabidopsis) (UniProt Q8GZB6); assay: split reporter; luciferase complementation imaging (LCI) in N. benthamiana leaves: Myc-TrAP-nLUC with cLUC-3HA-candidate proteins, 2 days after agroinfiltration, luciferin, EMCCD camera
T3 sequence: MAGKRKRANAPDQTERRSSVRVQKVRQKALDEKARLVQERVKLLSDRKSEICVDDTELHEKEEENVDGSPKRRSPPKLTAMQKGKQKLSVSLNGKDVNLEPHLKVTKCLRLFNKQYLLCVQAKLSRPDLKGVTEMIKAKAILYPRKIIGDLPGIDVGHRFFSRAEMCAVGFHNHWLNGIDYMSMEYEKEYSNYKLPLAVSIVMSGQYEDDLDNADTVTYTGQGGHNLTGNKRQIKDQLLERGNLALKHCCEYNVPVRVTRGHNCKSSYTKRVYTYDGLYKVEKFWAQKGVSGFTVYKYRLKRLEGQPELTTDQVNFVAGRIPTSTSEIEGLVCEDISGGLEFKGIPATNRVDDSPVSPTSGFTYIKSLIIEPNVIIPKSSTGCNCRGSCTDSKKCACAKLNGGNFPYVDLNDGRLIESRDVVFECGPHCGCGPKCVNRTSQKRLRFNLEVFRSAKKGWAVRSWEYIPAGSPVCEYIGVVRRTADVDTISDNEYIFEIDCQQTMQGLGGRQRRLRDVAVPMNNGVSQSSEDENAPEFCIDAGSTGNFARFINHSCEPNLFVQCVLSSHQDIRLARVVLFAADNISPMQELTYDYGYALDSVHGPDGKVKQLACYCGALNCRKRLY

[4] = molecular target: Myc-TrAP-nLuc (not stated (TGMV or CaLCuV TrAP cloned)); assay: co-IP; N. benthamiana leaves co-infiltrated with 35S-Myc-TrAP-nLuc and cLuc-HA-KYP; IP with anti-c-Myc agarose at 4°C, 300 mM NaCl, 0.5% Triton X-100; blots with anti-Myc or anti-HA

In the case of “His-GST-CaLCuV-TrAP (Cabbage Leaf Curl Virus (CaLCuV))”, the binding [1] is reported as “binds” and the binding [2] is reported as “binds”.

With “His-GST-TGMV-TrAP (Tomato Golden Mosaic Virus (TGMV))” the binding [1] was “binds” and the binding [2] was “binds”.

For Myc-TrAP-nLuc, the binding [3] was “binds”.

B1: CLuc-HA3-KYP (enzyme, UniProt Q8GZB6 1-624)
chain: MAGKRKRANAPDQTERRSSVRVQKVRQKALDEKARLVQERVKLLSDRKSEICVDDTELHEKEEENVDGSPKRRSPPKLTAMQKGKQKLSVSLNGKDVNLEPHLKVTKCLRLFNKQYLLCVQAKLSRPDLKGVTEMIKAKAILYPRKIIGDLPGIDVGHRFFSRAEMCAVGFHNHWLNGIDYMSMEYEKEYSNYKLPLAVSIVMSGQYEDDLDNADTVTYTGQGGHNLTGNKRQIKDQLLERGNLALKHCCEYNVPVRVTRGHNCKSSYTKRVYTYDGLYKVEKFWAQKGVSGFTVYKYRLKRLEGQPELTTDQVNFVAGRIPTSTSEIEGLVCEDISGGLEFKGIPATNRVDDSPVSPTSGFTYIKSLIIEPNVIIPKSSTGCNCRGSCTDSKKCACAKLNGGNFPYVDLNDGRLIESRDVVFECGPHCGCGPKCVNRTSQKRLRFNLEVFRSAKKGWAVRSWEYIPAGSPVCEYIGVVRRTADVDTISDNEYIFEIDCQQTMQGLGGRQRRLRDVAVPMNNGVSQSSEDENAPEFCIDAGSTGNFARFINHSCEPNLFVQCVLSSHQDIRLARVVLFAADNISPMQELTYDYGYALDSVHGPDGKVKQLACYCGALNCRKRLY
In the case of B1, the binding [4] is reported as “binds”.
